Experimental findings from PMC10861826 are described below.

Amino acid sequences for entries named in this document (tags omitted).
UniProt O15392: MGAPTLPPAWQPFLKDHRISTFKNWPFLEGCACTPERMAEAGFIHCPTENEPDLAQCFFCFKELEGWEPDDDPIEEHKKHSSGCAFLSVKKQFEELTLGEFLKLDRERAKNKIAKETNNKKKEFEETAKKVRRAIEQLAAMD

This assay concerns the target survivin (human (endogenous in HCC827)) (UniProt O15392). The assay is described as follows: co-IP; survivin antibody (2 ug) on protein A/G-agarose beads, lysate incubated 2 h at 4°C; HCC827 cells treated with Dioscin or DMSO for 24 h, then MG132 (20 µM) for 8 h; IP lysis buffer; co-precipitated proteins detected by immunoblot. Background: In western blotting, separated proteins are transferred to a membrane and probed.

Results are given in words; binding and its absence hold for the method and conditions named. In cells and extracts the contact can be indirect. Some entries that bind do so weakly or less than the wild type.

B1: E3 ubiquitin ligase Fbxl7 (protein, UniProt Q9UJT9 1-491)
chain: MGANNGKQYGSEGKGSSSISSDVSSSTDHTPTKAQKNVATSEDSDLSMRTLSTPSPALICPPNLPGFQNGRGSSTSSSSITGETVAMVHSPPPTRLTHPLIRLASRPQKEQASIDRLPDHSMVQIFSFLPTNQLCRCARVCRRWYNLAWDPRLWRTIRLTGETINVDRALKVLTRRLCQDTPNVCLMLETVTVSGCRRLTDRGLYTIAQCCPELRRLEVSGCYNISNEAVFDVVSLCPNLEHLDVSGCSKVTCISLTREASIKLSPLHGKQISIRYLDMTDCFVLEDEGLHTIAAHCTQLTHLYLRRCVRLTDEGLRYLVIYCASIKELSVSDCRFVSDFGLREIAKLESRLRYLSIAHCGRVTDVGIRYVAKYCSKLRYLNARGCEGITDHGVEYLAKNCTKLKSLDIGKCPLVSDTGLECLALNCFNLKRLSLKSCESITGQGLQIVAANCFDLQTLNVQDCEVSVEALRFVKRHCKRCVIEHTNPAFF
Take B1: the binding result was “binds”.
